Experimental data published in publication PMC11087482, “Discovering allatostatin type-C receptor specific agonists” (Nature Communications, 2024).
Positions of bridges follow the written chain, without caps; N, C: chain ends. Non-standard residues stand in square brackets, D forms with d. Residues, ends and D or L forms follow the SMILES beside them. pGlu = O=C1CC[C@@H](C(=O)O)N1

Tested on: T. pityocampa larvae
Test: Toxicity tests, topical application on second instar larvae
Type: in vivo
Conditions: Probit analysis, day 14 mortality
Protocol: Pine processionary moth 2nd instar larvae of Thaumetopoea pityocampa for toxicity tests, adult, and 1st instar larvae of predator Calosoma sycophanta, 2nd instar larvae of potato beetle Leptinotarsa decemlineata were used for side effect assays.
T. pityocampa larvae were collected from red pine trees, Pinus brutia, in Nallıhan district of Ankara, Türkiye, in 2021. Larvae were cultured in 60 (±10) % humidity, 27 (±2) °C, and 16:8 light: dark photoperiod and were fed with red pine needles.
Stock solutions of the molecules were dissolved in DMSO, AST-C peptide was dissolved in PBS supplemented with 0.1% BSA pH 7.4. Dilutions were prepared in PBS supplemented with 0.1% BSA pH 7.4 in 50, 100, 250, 500, 750, and 1000 ppm (mg/L) concentrations and later placed in an ultrasonic bath (Sonorex, Bandelin) for ~10 min at 37 °C until all precipitates had vanished. Toxicity tests were conducted 1 day after larvae collection. 5 µL of doses were applied on the dorsal surface of the head-prothorax junction topically. […] Two negative control groups were prepared as PBS-applied and no application. Following the procedures, larvae were fed with 15 g P. brutia needles. Experiments were carried out on 10 larvae for each dosage, with three repeats.
Insect deaths were evaluated on the 3rd, 7th, and 14th days in toxicity and side effect experiments. The ones that were not feeding or not responding by a movement to stimulation with a soft-tipped brush were accepted as dead. Percentage mortality values generated on the 14th day were corrected using Abbott’s formula[84]. Statistical analyses were executed with IBM SPSS Statistics (v26.0) and R Studio (2022.02.0), and two-way ANOVA and Tukey test were performed to detect the data’s statistical significance. Lethal concentration values of LC50–90 (dose that produces 50-90% mortality in the population) with 95% confidence intervals (CI) and slopes were obtained using PoloPlus software (LeOra Software, USA) for mortality values assessed on the 14th day for T. pityocampa and the 3rd day for L. decemlineata. The LC50–90 values were considered to be similar if their 95% CIs overlapped (P > 0.05)[85]. Analysis between-subject effects on T. pityocampa larva length; one-way ANOVA tests assessing the impacts of molecule treatment on T. pityocampa larvae on larva length; and analysis of between-subjects effects on T. pityocampa head capsule width, alongside one-way ANOVA tests regarding the effects of molecule treatment on T. pityocampa larvae to head capsule width are detailed in the Source Data File (Source Data Supplementary Data Tables 1–4). Source data is available as Source Data File.

SMILES | Slope ± SE
CC[C@H](C)[C@@H]1NC(=O)[C@@H]2CCCN2C(=O)[C@H](CC(N)=O)NC(=O)[C@H](Cc2ccccc2)NC(=O)[C@H](Cc2ccc(O)cc2)NC(=O)[C@@H](NC(=O)[C@H](CCC(N)=O)NC(=O)[C@H](CCCNC(=N)N)NC(=O)[C@H](Cc2ccccc2)NC(=O)[C@H](CCCNC(=N)N)NC(=O)[C@@H](NC(=O)[C@@H]2CCC(=O)N2)C(C)C)CSSC[C@@H](C(=O)N[C@@H](Cc2ccccc2)C(=O)O)NC(=O)[C@H](CO)NC1=O [AST-C, reference compound] ([pGlu]VRFRQCYFNPISCF-OH; disulfide 7-14; C-terminus assumed) | 1.803 ± 0.299
O=C1c2n[nH]c(-c3ccccc3O)c2C(c2cccc(Oc3ccccc3)c2)N1CC1CCCO1 (centres unmarked) [D074-0013] | 0.377 ± 0.266
O=C1c2n[nH]c(-c3ccccc3O)c2C(c2cccc(OCc3ccccc3)c2)N1CC1CCCO1 (centres unmarked) [D074-0034] | 0.736 ± 0.262
O=C(C[C@@H]1NC(=O)c2ccccc2NC1=O)NCCn1c(=O)c(O)nc2ccccc21 [J100-0311] | 1.916 ± 0.429
COc1ccc([C@H](CC(=O)NCc2ccncc2)c2cn(Cc3ccc(C)cc3)c3ccccc23)cc1OCc1ccccc1 [V029-3547] | 3.704 ± 0.871
